# From article PMC8864237
# Chains of the proteins cited; added tags and fusions are not shown.
# UniProt Q9H1Y0: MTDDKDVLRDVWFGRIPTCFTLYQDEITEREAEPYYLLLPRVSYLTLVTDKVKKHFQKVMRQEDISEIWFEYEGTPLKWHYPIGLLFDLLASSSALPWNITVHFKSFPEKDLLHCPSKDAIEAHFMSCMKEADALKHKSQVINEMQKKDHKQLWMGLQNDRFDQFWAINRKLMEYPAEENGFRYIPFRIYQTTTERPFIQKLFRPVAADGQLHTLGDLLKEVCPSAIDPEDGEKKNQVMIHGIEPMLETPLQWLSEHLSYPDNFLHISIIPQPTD
# UniProt P46934: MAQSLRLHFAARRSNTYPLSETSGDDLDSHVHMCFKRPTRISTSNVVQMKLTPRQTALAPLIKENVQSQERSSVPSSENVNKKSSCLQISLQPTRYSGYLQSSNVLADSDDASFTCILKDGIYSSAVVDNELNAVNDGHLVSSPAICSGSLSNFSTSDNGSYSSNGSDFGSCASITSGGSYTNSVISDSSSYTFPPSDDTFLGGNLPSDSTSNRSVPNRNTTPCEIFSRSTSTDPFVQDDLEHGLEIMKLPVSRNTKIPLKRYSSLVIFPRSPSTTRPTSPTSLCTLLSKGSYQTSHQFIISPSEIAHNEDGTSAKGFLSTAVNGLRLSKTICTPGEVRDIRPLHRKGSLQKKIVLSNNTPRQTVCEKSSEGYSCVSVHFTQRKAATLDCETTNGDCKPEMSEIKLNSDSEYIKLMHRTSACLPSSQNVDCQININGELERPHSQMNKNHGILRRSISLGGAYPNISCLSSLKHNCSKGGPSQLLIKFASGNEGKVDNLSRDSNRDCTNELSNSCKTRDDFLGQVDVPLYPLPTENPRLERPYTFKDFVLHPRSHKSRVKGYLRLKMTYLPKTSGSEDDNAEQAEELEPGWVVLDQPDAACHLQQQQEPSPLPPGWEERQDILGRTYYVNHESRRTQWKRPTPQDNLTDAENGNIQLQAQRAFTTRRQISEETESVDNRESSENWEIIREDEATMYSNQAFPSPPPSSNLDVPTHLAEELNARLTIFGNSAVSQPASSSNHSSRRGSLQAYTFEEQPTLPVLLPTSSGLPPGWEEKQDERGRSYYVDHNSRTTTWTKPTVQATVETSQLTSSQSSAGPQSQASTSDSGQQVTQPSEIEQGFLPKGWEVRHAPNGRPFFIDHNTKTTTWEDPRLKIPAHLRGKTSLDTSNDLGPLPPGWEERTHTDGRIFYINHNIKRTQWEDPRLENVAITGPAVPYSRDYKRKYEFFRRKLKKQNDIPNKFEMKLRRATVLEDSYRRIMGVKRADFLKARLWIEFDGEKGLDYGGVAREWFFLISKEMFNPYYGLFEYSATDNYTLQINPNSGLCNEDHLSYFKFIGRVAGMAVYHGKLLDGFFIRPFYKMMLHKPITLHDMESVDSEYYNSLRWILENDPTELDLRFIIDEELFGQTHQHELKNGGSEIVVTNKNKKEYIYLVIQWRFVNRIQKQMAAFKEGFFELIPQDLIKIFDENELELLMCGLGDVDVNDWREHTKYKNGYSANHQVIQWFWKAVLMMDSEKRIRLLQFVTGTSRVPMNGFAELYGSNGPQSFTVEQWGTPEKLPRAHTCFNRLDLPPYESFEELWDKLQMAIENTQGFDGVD
# No constants are given. Whether binding was seen depends on the method and setting. In cells and extracts the contact can be indirect. Some results given as binding are weak or reduced against the parent protein; the word gives no strength. For some assays here: Tags and fused reporters may be left off the sequences shown.
# Experiments:
# [1] = biological target: FLAG-hATG5 (human ATG5) (human) (UniProt Q9H1Y0); assay: co-IP; 293FT cells co-transfected with His-UB, FLAG-hATG5 or FLAG-hATG7 and pcDNA3.1 vector, CSP-HA, CSPΔNLS-HA or NLS-HA; 10 μM MG-132 for 24 h; FLAG proteins captured on anti-FLAG M2 magnetic beads, washed five times (50 mM Tris HCl, 150 mM NaCl, pH 7.4); blot with rabbit anti-NEDD4
# [2] = biological target: T1, FLAG-hATG7 (human ATG7) (human) (UniProt O95352); assay: as above
# T1 sequence: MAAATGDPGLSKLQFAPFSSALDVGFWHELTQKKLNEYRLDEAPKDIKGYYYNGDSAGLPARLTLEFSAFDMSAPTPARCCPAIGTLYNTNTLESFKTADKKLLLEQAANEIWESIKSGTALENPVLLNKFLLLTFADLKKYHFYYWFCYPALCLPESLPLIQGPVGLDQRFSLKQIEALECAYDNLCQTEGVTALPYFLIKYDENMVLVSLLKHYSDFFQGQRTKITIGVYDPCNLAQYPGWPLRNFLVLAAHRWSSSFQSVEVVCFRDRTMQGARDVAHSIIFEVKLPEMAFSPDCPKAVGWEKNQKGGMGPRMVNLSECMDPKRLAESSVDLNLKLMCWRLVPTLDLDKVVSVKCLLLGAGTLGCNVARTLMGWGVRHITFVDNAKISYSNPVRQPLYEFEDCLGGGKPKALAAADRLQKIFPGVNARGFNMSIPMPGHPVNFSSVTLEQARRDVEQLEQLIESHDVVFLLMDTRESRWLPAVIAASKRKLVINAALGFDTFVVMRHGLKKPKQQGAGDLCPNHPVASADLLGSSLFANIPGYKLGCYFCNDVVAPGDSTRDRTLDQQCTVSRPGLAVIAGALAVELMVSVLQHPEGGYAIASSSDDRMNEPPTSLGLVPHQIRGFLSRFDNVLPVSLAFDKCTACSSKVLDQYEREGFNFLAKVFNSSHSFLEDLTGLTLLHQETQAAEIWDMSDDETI
substance,measurement,setting,value
"E3 ubiquitin ligase NEDD4 (neural precursor cell expressed, developmentally down-regulated 4) (from UniProt P46934 1-1319) (enzyme)",binding,[1],binds
same,binding,[2],binds
